Source: paper PMC3641059
No constants are given. Whether binding was seen depends on the method and setting. Some results given as binding are weak or reduced against the parent protein; the word gives no strength. Tags and fused reporters may be left off the sequences shown.

Sequences of proteins named here, by UniProt entry; tags and fusion partners are left off.
UniProt P19658: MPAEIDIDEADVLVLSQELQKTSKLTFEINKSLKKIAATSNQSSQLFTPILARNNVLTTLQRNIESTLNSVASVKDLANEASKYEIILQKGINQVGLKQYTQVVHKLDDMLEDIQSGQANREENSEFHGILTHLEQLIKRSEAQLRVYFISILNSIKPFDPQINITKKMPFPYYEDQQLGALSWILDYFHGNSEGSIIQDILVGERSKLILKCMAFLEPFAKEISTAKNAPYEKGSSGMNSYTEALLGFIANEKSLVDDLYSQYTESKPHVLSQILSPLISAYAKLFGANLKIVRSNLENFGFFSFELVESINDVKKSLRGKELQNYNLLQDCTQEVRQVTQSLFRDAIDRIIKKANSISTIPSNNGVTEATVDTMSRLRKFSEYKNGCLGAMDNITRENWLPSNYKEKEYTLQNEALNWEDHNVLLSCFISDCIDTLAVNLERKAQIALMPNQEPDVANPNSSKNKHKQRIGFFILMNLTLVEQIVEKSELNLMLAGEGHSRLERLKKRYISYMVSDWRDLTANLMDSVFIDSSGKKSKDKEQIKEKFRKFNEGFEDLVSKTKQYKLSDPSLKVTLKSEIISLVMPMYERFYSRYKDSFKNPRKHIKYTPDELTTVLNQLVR
UniProt P38261: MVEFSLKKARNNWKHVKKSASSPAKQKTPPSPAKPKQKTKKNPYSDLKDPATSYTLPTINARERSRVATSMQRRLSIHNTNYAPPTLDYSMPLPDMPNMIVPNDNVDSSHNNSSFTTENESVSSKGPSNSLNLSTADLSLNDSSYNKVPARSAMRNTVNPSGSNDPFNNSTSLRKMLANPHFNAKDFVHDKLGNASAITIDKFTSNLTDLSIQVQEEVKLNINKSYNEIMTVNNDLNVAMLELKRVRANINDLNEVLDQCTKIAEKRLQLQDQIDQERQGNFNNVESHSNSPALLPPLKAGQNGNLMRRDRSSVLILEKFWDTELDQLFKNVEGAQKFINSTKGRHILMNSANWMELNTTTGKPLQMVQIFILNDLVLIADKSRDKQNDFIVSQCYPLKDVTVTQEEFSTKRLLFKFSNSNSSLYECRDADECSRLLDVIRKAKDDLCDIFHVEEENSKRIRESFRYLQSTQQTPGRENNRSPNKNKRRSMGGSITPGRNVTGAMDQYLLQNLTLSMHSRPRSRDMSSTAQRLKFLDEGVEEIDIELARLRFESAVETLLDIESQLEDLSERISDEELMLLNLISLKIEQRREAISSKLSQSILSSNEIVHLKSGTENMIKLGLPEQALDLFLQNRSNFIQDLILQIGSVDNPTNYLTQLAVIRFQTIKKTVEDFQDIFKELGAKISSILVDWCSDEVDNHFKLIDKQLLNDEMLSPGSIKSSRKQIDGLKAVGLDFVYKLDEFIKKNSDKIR
UniProt P33332: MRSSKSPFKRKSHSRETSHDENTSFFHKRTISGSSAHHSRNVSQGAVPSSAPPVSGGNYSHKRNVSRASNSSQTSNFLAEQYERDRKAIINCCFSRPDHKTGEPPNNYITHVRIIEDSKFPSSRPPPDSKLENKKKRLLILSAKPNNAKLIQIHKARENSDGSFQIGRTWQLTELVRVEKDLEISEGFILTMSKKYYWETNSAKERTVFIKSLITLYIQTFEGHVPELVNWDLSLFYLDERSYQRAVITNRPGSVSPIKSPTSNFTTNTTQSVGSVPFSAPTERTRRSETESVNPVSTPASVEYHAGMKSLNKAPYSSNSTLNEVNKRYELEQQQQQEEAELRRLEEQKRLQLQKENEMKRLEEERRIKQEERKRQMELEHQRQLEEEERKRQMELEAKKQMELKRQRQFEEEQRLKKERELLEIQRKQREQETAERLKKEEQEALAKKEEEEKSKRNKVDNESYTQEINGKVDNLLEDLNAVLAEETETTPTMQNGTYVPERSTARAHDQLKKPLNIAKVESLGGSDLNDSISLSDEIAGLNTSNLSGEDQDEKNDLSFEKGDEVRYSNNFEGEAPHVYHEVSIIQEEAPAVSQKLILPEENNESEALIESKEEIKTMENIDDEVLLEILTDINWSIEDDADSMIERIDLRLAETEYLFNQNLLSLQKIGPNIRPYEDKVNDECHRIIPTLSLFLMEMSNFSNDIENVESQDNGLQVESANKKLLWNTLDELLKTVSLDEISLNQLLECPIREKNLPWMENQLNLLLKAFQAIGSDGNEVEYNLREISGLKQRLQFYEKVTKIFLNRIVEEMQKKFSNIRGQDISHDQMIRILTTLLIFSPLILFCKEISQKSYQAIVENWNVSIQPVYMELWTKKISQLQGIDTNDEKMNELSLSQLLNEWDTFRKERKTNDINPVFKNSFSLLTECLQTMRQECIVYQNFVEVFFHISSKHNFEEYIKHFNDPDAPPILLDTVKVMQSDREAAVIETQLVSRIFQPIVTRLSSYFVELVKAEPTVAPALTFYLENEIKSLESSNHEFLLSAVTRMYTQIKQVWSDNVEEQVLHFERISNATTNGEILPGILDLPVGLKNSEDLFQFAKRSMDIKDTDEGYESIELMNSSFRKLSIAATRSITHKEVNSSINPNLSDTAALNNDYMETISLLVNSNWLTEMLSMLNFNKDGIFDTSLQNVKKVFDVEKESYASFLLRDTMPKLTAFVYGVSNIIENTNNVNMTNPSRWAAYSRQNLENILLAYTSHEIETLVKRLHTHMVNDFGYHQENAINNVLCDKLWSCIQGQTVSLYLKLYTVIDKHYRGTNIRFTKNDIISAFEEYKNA

B1: Sec5-GFP (protein, UniProt P89102 1-971)
chain: MDRFQIGDEQLLRFYQLKTINPTHSWAQDSSKLNNEEATSNELGVETSFDILKDFKYGNQISIDKESRAYLNDESLSYIRDPLNGQEMSKELQHLPNDSMRLNYLVNSKQFNVKAFLRDMHKQDSFNDLNNSLDRLDSDIQDQSIHLKQLVGKNFTKYVKIKNKLDQIYKEFDEKTNEKNQCDSPKENQINVESLNKKVDEVIRTTTFKLKPLMDNYQKILNYQATKKFIELNKFYFNLPKSLKRCLTNNDFNEFIIEYSKGLTLRRRFNQSSDASQSLVIKRIWTQIENLLVTYKDLIWNSLINSNFNIDQPQETILSLFSKLLNLENFINNNQRESESGNKNTTSSSNENPILRWMSIKMNGFQNELNELSGHMISKIIHSQRLILQNNTNQDKSQGCVELSYYLKINQLFQIISDTGKDSEGLKSTVEPNKVNTISGTSYLNLNCQPSSQGLTDSPTIIEMWLLILKYINDLWKICDQFIEFWEHIEKFLDGTYQNSIINEKRKENILIGDSNIIESYQKSLILKEEQINEVRLKGEEFITSVSQNLISFFTSSQSSLPSSLKDSTGDITRSNKDSGSPLDYGFIPPNCNGLSCLRYLPKIVEPILKFSTELAQLNITTNGITICRNTLSTIINRCVGAISSTKLRDISNFYQLENWQVYETVTFSSKSQDSSKNLTFEYGVTQFPEIVTSFQEVSIKTTRDLLFAYEKLPIINGISVVSYPSKQLLTGIEIQQIISMEAVLEAILKNAAKDKDNPRNSHTILTLTNLQYFRECAFPNILQYFDDAFEWNLASKNLELFSLLSKMESSIFGNYLSDLKINLRDTLEEKFHEINWPMYTSNSFRVGDYIIEALMILIVVHSECFRIGPQLIHKILIETQIFIARYLFEAFKPYVGNLSNDGSLQIIVDLEFFQKVMGPLLEKDTEATLRACLQNCFQNDTNRLQKCINEINPIVSANLKRTAIQFAAFS
B2: Sec8-GFP (protein, UniProt P32855 1-1065)
chain: MDYLKPAQKGRRRGLSINSLSETQQSAMNSSLDHLQNDLNRINLQWNRILSDNTNPLELALAFLDDTSVGLGHRYEEFNQLKSQIGSHLQDVVNEHSQVFNTNVASYGKAVSSIMQAQEQTLNLKNCLKEANEKITTDKGSLQELNDNNLKYTKMIDVLVNIEELLQIPEKIEENIRKENFHQVQILLERGFILMNNKSLKTVEILKPINQQLELQEHLLFNNLIEEIHDIMYSKSNKTNFTRVTNNDIFKIISISHNGFTSLENYLYNIVNIDIMEHSKTINKNLEQFIHDQSLNKGNIMLQENAATQAPLAPSRNQENEGFNRIGFLLKTINNINKLPVAFNIITERAKEEIHNIIVKSTESIRSKHPSLLKMATSLKNDNHFGLPVQDILSIILRECFWEIFLKLLYAIQCHRAIFEMSNILQPTSSAKPAFKFNKIWGKLLDEIELLLVRYINDPELISSNNGSIKPINGATNNAPTLPKRKNPKIFSLEYNIEDNSSVKDQAFELKALLKDIFPGFSVSSNMDLDSIYVKDESFEQDEPLVPPSVFNMKVILDPFLLFTQSTSTIVPSVLTQNTISSLTFFDDYMNKSFLPKIQMTMDYLFTVEVESNNPYALELSDENHNIFKTALDFQRLFYNLLNVFNTANTFREKISYCILDLLNHFYNYYLGLFNSLIGTSDRHLTRKIITAWLQNGILMDQEQKILNGDETLFHEESIELFKEIPHFYQAGKGLSKSDLFNNLTLDTILQFSASVLWILNWLPGLKKAINIDEVSQEPMLDADRLRSSWTFSESMDLNYSNPSSSPNSLGNLKILLDDKASKKFDETIDGFKTLKFKLITILRFNIRALCIYDIGSFFQNTKIWNMDVGSIELDQNIASLISELRRTESKLKQQLPEKEKNSIFIGLDIVNNYALIKGAKSIKVLNHNGIKKMLRNVNVLQHAYRNLSSEPSKINMNVTMNFYSLCGSSEAELFEYIKDNELPHCSVEDLKTILRLQFSEEMHRQLKRQSTSSTKGSIKPSNKRYTEALEKLSNLEKEQSKEGARTKIGKLKSKLNAVHTANEK
B3: Sec15-GFP (protein, UniProt P22224 1-910)
chain: MDQEGQPLLSKDFQQVLLATASGNNSSWTERAVLNNESTDAVKHEPALGQNDVFDLDPLSFDKWVPFLRRALDKNQLDPVIDELENSIEDNFQGLELQLLQDSQMNDKLETSIDEIANIQGMVQDTLSSEISKFQIRLSESANELIVKKQMYVNNKKISLKISEATILITKVVRILELSSKCQELITERKFFKVLQNLDSLEKLYLQEFKNYNFQFLIEIYNSIPFLQKVTKDECINLIRNSLNLNLGKNLIKVGQEFVAIYENELLPQWLETRSKMKLTNFKFNSPIEISMRDESFLAKLNLGEFFQLDDFHDSIMIFQNLNELSVLSGEFNKEYELRKTKLMYPLIWKKNKTAAYQMDSLLRGTGTTPGSTAHDVSTDDPFTQSLSLHFLQDYFLKILGFLLYDINLNKATEFILVDNNYNSTNEFWDGLMDRLSPYLSYFIDEKLKTEEDMIKLKDFLCIYVAILENFKLNIEPLYKILVSIFEKFCSVSLRAFDDEFQILLNDDDFMPLSINDKTLYEKVLKICWMKEGEHLSLPDPTNGEPFAVTLPFSPLYPMTCTLAKKTYSKITAFLSIFYRHELHTLNNILVKTMDDIFNDIVNKKIRSKLESTSREEIAQILVNLDYFIIAAKEFSNFMTRENILQNPDMEIRLSSIKYLAESRKLAETKLIELIDSKISDILETIEIDWQITEVRQDPDISIIDLAQFLEMMFASTLQNLPYSVQTLLIFREFDSLTRQFMGLLLHDTPSTITHESIMNFEVDVNYLESIIPRIFPSTPGTIDSNGYQSPMTPSTPTFPNANGVDAPTLFENNIKSLEATFMELKQCIELLKTQGKDYNEPEIRLRKYSRIRQEDAALLLSKIQHFVSSVEGANGDDTSVMDSSSIFNSESASVIDSNTSRIAKFFNRR
B4: Sec6-GFP (protein, UniProt P32844 1-805)
chain: MSSDPLQQVCDLIKGDLSLERVRDIKEQLLKEKSVVEYQLNKESDKYYGEVEESLKLLNLSKNSVTSIKQQINEVNKLGNDNRFAINRYDILFRATKLYETVNTTSSIYDRIYNFVALMEHIERLLVAELAEDALETGCPHLLEIHFLLTSARDFQEQVVVMAKEATEDAQRTVMKLFSRLSGIISKFDKLLDGLTYDIVEMARAEQISLAIRLFKIYDLEEREDLRIEAIRNIIKKKEIEIEKSSIKKLPNSKNTARLQDETPKVIEYPTNKGLYQEIMSGTISTRTAPRGYKHFLINGINNSISEMFGEMREKYVGDQKFDVLDNMDWIFNELIIVKEHIANCCPPHWNIFEVYFDQYYKELHSLITDLVESEPETIIILDILAFDKTFQDTLKQDFGFTKSEVKSVIGDKEKETLFKDYLNLIVVKMTEWIGNLEKAEFDVFLERSTPPHSDSDGLLFLDGTKTCFQMFTQQVEVAAGTNQAKILVGVVERFSDLLTKRQKNWISKISEEIKKQINYNHKYDIDPESITPEDECPGGLVEYLIAVSNDQMKAADYAVAISSKYGKLVSKVYEKQITNHLEGTLDGFAEVAQCSSLGLITLMFDDLRKPYQEIFSKTWYMGSQAQQIADTLDEYLLDIKPQMNSVLFVNFIDNVIGETIIKFLTALSFEHSFKNKNNKFLEAMKRDFEIFYQLFVKVLDGNESKDTLITQNFTVMEFFMDLSCEPIDSILDIWQKYLEVYWDSRIDLLVGILKCRKDVSSSERKKIVQQATEMLHEYRRNMEANGVDREPTLMRRFVLEFEKQ

molecular target: Exo70-FRB (S. cerevisiae) (UniProt P19658); assay: automated PICT screen (co-translocation, automated live-cell imaging); living S. cerevisiae, anchor Pil1-RFP-FKBP, bait Exo70-FRB, 227 C-terminally GFP-tagged prey strains in 96 well plates; vehicle (DMSO) or 10 µM rapamycin for 15-60 min; nine fields of view; ratio of the area of colocalisation with and without rapamycin, one-tailed t-test (p<0.02), and visual inspection

binding, binds:
Exo84-GFP (from UniProt P38261 1-753), Sec3-GFP (from UniProt P33332 1-1336), B1, B2, B3, B4
